Taken from: PubChem BioAssay AID1159584 (Peter MacCallum Cancer Centre, 2016)
In all, the deposit lists about 18,000 reagents; this is a random part of them. Reagent sequences are not shown. The record does not give: the amount of reagent, the time to read-out.

Screen: 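Knock-downs that harm CDH1-null cells more than parental MCF10A cells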 (primary screen)
Cells: human MCF10A breast epithelial cells, parental and CDH1-null
Reagent: siRNA against human genes
Detection: 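Cell viability by CellTiter-Glo ATP luminescence, each line scaled to the mean of mock wells across plates, then CDH1-null over parental ratio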
Scale: CDH1-null / parental viability ratio: higher = CDH1-null cells survive relatively better than parental; CDH1-null viability vs mock: higher = more viable CDH1-null cells; parental viability vs mock: higher = more viable parental cells

no.	gene	CDH1-null / parental viability ratio	CDH1-null viability vs mock (fraction of mock)	parental viability vs mock (fraction of mock)
1	FBXO30	0.92	0.76	0.83
2	LINGO2	0.85	0.46	0.54
3	TUBD1	1.05	0.8	0.76
4	MAPKAPK3	0.94	0.75	0.8
5	ZNF626	1.28	1.25	0.98
6	MBNL2	0.87	0.62	0.71
7	PIGX	1.77	0.55	0.31
8	SLC26A10P	1.07	0.92	0.86
9	RPS15	1.25	0.4	0.32
10	CNDP1	1.14	0.66	0.58
11	CSF2	0.91	0.91	1
12	PRDM10	0.89	0.62	0.7
13	CEACAM6	1.15	0.92	0.8
14	TRIM4	0.81	0.52	0.64
15	SYT11	1.6	0.8	0.5
16	ANKRD33	0.9	0.72	0.8
17	BCAN	0.93	0.69	0.74
18	ASAP2	0.96	1.01	1.05
19	OR51F1	1.5	0.87	0.58
20	CLVS2	1.48	0.92	0.62
21	DAZ1	0.94	0.78	0.83
22	UBAC1	0.87	0.7	0.8
23	VDAC1	1.11	1.08	0.97
24	SPAM1	0.97	0.83	0.86
25	UTP3	1.27	0.9	0.71
26	AMZ1	1.13	0.44	0.39
27	CYB5R2	0.99	0.82	0.83
28	GAGE12I	0.88	0.77	0.88
29	HAPLN2	1	0.53	0.53
30	TAGAP	1.39	0.64	0.46
31	PMFBP1	1.11	0.94	0.85
32	IGF2R	0.83	0.84	1.01
33	SLC27A3	0.83	0.58	0.7
34	FBXO11	1.02	0.83	0.81
35	MAN1C1	1.15	0.94	0.82
36	CABP2	0.98	0.9	0.92
37	PIK3R3	1.34	1.06	0.79
38	OXCT1	0.98	0.84	0.86
39	PREPL	1	0.82	0.82
40	ATP5PB	1.25	0.8	0.64
41	ZIC2	1.07	1.03	0.96
42	PLK2	1.01	0.89	0.88
43	GHRH	1.03	0.64	0.62
44	ADGRF1	1.37	1.07	0.78
45	SFRP1	0.87	0.7	0.8
46	HTR6	0.97	0.86	0.89

Taken from above.
Entry for OXCT1 in “CDH1-null / parental viability ratio”: 0.98
Result for PRDM10 under “parental viability vs mock (fraction of mock)”: 0.7
Result for TUBD1 under “parental viability vs mock (fraction of mock)”: 0.76
ASAP2, parental viability vs mock (fraction of mock): 1.05
Under “CDH1-null / parental viability ratio”, TRIM4 reads 0.81
SLC26A10P, parental viability vs mock (fraction of mock) = 0.86
